Assay results published in patent US9249378B2, “Aqueous cleaning compositions having enhanced properties” (Eastman Chemical Company, priority 2013, dated 2016).

Experiment: Wax scrub test with neat solvents on waxed vinyl floor tile
Settings: neat solvent; for Number of Strokes in Wax Test Shown in FIG. 5: strokes required to achieve the results shown in FIG. 5; for Removal of wax layer: after 1000 strokes, FIG. 5

Compound	Number of Strokes in Wax Test Shown in FIG. 5 [strokes]	Removal of wax layer
CC(C)=O [Acetone, acetone]	50	–
COC(C)COC(C)CO (stereo not shown) [DPM, dipropylene glycol methyl ether]	1000	–
CCCCOCCO [Ethylene glycol monobutyl ether]	900	–
CCCCOCC(C)O (stereo not shown) [PnB, propylene glycol butyl ether]	500	–
CCCOCC(C)O (stereo not shown) [PnP, propylene glycol propyl ether]	500	–
C=C(C)[C@H]1CC=C(C)CC1 [d-limonene]	1000	did not remove the wax layer
CC(O)CC(=O)OC(C)C (stereo not shown) [i-propyl 3-hydroxybutyrate, isopropyl 3-hydroxybutyrate]	1000	did not remove the wax layer
CCCCOC(=O)CC(C)O (stereo not shown) [n-butyl 3-hydroxybutyrate]	1000	did not remove the wax layer
dibasic ester	1000	did not remove the wax layer

Some compounds share one wording; it may come from a single statement.
